These are yes or no findings as the source states them, for the method shown. Binding calls can cover weak binding; strength is not graded here.
Target: amylin receptors of rat nucleus accumbens membranes (rat)
Experiment: radioligand competition, rat nucleus accumbens membranes

In the case of LSTCVLGRLSQELHRLQTYPRTNTGSNTY (Synthetic 29-residue peptide) [Compound 1], the binding is reported as “binds”.
